Measured values as given in paper PMC10670284.
Results are given in words; binding and its absence hold for the method and conditions named. Binding seen in cells or lysates may run through a third protein. Where a sequence is shown, tags or fusion partners need not be part of it.

Biological target: FLAG-tagged TCF7L2, C-terminally truncated (delC = TCF7L2AA1-321)
Assay: co-IP; 0.5 mg whole cell extract of transfected HEK293T cells rotated overnight at +4 °C with 2.5 μg anti-FLAG antibody, Dynabeads Protein G; extracts diluted to 150 mM NaCl and 0.1% NP-40; Western blot

binding: no binding
B1: Myc-tagged KDM2A (protein, UniProt Q9Y2K7 1-1162)
chain: MEPEEERIRYSQRLRGTMRRRYEDDGISDDEIEGKRTFDLEEKLHTNKYNANFVTFMEGKDFNVEYIQRGGLRDPLIFKNSDGLGIKMPDPDFTVNDVKMCVGSRRMVDVMDVNTQKGIEMTMAQWTRYYETPEEEREKLYNVISLEFSHTRLENMVQRPSTVDFIDWVDNMWPRHLKESQTESTNAILEMQYPKVQKYCLMSVRGCYTDFHVDFGGTSVWYHIHQGGKVFWLIPPTAHNLELYENWLLSGKQGDIFLGDRVSDCQRIELKQGYTFVIPSGWIHAVYTPTDTLVFGGNFLHSFNIPMQLKIYNIEDRTRVPNKFRYPFYYEMCWYVLERYVYCITNRSHLTKEFQKESLSMDLELNGLESGNGDEEAVDREPRRLSSRRSVLTSPVANGVNLDYDGLGKTCRSLPSLKKTLAGDSSSDCSRGSHNGQVWDPQCAPRKDRQVHLTHFELEGLRCLVDKLESLPLHKKCVPTGIEDEDALIADVKILLEELANSDPKLALTGVPIVQWPKRDKLKFPTRPKVRVPTIPITKPHTMKPAPRLTPVRPAAASPIVSGARRRRVRCRKCKACVQGECGVCHYCRDMKKFGGPGRMKQSCVLRQCLAPRLPHSVTCSLCGEVDQNEETQDFEKKLMECCICNEIVHPGCLQMDGEGLLNEELPNCWECPKCYQEDSSEKAQKRKMEESDEEAVQAKVLRPLRSCDEPLTPPPHSPTSMLQLIHDPVSPRGMVTRSSPGAGPSDHHSASRDERFKRRQLLRLQATERTMVREKENNPSGKKELSEVEKAKIRGSYLTVTLQRPTKELHGTSIVPKLQAITASSANLRHSPRVLVQHCPARTPQRGDEEGLGGEEEEEEEEEEEDDSAEEGGAARLNGRGSWAQDGDESWMQREVWMSVFRYLSRRELCECMRVCKTWYKWCCDKRLWTKIDLSRCKAIVPQALSGIIKRQPVSLDLSWTNISKKQLTWLVNRLPGLKDLLLAGCSWSAVSALSTSSCPLLRTLDLRWAVGIKDPQIRDLLTPPADKPGQDNRSKLRNMTDFRLAGLDITDATLRLIIRHMPLLSRLDLSHCSHLTDQSSNLLTAVGSSTRYSLTELNMAGCNKLTDQTLIYLRRIANVTLIDLRGCKQITRKACEHFISDLSINSLYCLSDEKLIQKIS
